{
  "source": "PubChem BioAssay AID504467",
  "about": "(National Center for Advancing Translational Sciences (NCATS), 2011)",
  "note": "The whole screen tested about 330,000 compounds, of which about 7,700 (2.3%) were called active. Inconclusive results, whose numbers are uncertain, are shown with a selection of clear calls. Calls come from the whole dose curve; as a rule, active = well fitted inhibition curve with a large enough effect; inconclusive = small, poorly fitted or top-dose-only effect, or effect the other way; inactive = flat fitted curve, though single readings scatter. Where the call is inconclusive, the potency comes from a doubtful curve fit. Potency is the fitted concentration of half-maximal effect.",
  "data": [
    {"test": "qHTS screen for small molecules that inhibit ELG1-dependent DNA repair in human embryonic kidney (HEK293T) cells expressing luciferase-tagged ELG1; note: nearly all actives have a fitted effect of over 55% in size", "settings": "HEK293T ELG1-luciferase reporter, luminescence, 16 h, DNA damage induced by 5-fluorouridine; series mostly up to 46.1 µM", "summary_of_the_method": "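5-Fluorouridine DNA damage + compound/DMSO, 2,000 cells/well, 16 h, 37 °C/5% CO2. ONE-Glo, 30 min RT, luminescence. Readout = decrease in reporter signal.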", "values": [
      {"smiles": "Cc1ccc(C)c(CSc2ccc3nnc(-c4ccccn4)n3n2)c1", "Potency": "inconclusive: 29.1 µM [inhibitor, partial curve, poor fit]"},
      {"smiles": "COc1ccc(C(=O)N2CCN(C(=O)C3CCCO3)CC2)cc1[N+](=O)[O-]", "note": "(configuration not stated)", "Potency": "inactive"},
      {"smiles": "O=C(O)COCC(=O)Nc1ccc(-n2cnnn2)cc1", "Potency": "inconclusive: 0.103 µM [inhibitor, partial curve, poor fit]"},
      {"smiles": "Cc1ccc2c(c1)cc(CN(Cc1ccco1)C(=O)COc1ccccc1)c1nnnn12", "Potency": "active: 20.6 µM"},
      {"smiles": "COc1ccc(CNC(=O)CN(Cc2ccco2)C(=O)CNS(=O)(=O)c2ccccc2)cc1", "Potency": "inactive"},
      {"smiles": "COc1ccc(CCNC(=O)C(=O)c2cn(CC(=O)N3CCOCC3)c3ccccc23)cc1OC", "Potency": "inconclusive: 20.6 µM [activator, partial curve, poor fit]"},
      {"smiles": "CC1CCN(S(=O)(=O)c2ccc(NC(=O)CCNC(=O)c3ccc(Cl)cc3)cc2)CC1", "Potency": "inactive"},
      {"smiles": "CCOC(=O)Cn1cc(C#N)c2cccc(CC)c21", "Potency": "inactive"},
      {"smiles": "CCN1CCN(c2cc(N3CCc4ccccc4C3)c(F)cc2[N+](=O)[O-])CC1", "Potency": "inactive"},
      {"smiles": "O=C(CCC(=O)c1cccs1)NCc1ccccc1", "Potency": "inactive"},
      {"smiles": "Cc1cccc(C)c1NS(=O)(=O)c1ccc(NC(=O)c2ccc(Cl)c([N+](=O)[O-])c2)cc1", "Potency": "inconclusive: 29.1 µM [inhibitor, single point]"},
      {"smiles": "Cc1nnc(SCC(=O)N2CCCC2)n(N)c1=O", "Potency": "inactive"},
      {"smiles": "CCN(CCNC(=O)C1CCN(S(=O)(=O)c2cccc3cccnc23)CC1)c1ccccc1", "Potency": "inactive"},
      {"smiles": "COc1ccc(CNCCNC(=O)c2nonc2N)cc1OC", "Potency": "inconclusive: 14.6 µM [activator, partial curve, poor fit]"},
      {"smiles": "CCN(CC(=O)Nc1ccccc1C(F)(F)F)C(=O)c1cc(-c2cccs2)nn1-c1ccccc1", "Potency": "inconclusive: 29.1 µM [inhibitor, single point]"},
      {"smiles": "Cc1ccc(CS(=O)Cc2ccc(C(=O)NC3CCCCCC3)o2)cc1", "note": "(configuration not stated)", "Potency": "inactive"},
      {"smiles": "CCOc1cccc2sc(N(CCN(C)C)C(=O)/C=C/c3cccs3)nc12", "Potency": "inactive"},
      {"smiles": "CC(C)(C)n1ncc2c(=O)n(Cc3ccc(Cl)c(Cl)c3)cnc21", "Potency": "inconclusive: 10.3 µM [inhibitor, partial curve, poor fit]"},
      {"smiles": "c1ccc(CSCc2nc3ccccc3[nH]2)cc1", "Potency": "inconclusive: 16.4 µM [activator, partial curve]"},
      {"smiles": "CCOC(=O)c1c(C)[nH]c(C)c1C(=O)CSc1nc2ccccc2c(=O)n1-c1ccc(F)cc1", "Potency": "inconclusive: 18.3 µM [inhibitor, single point]"},
      {"smiles": "CN(C(=O)COC(=O)/C=C/c1ccc(S(=O)(=O)N2CCc3ccccc32)cc1)C1CCS(=O)(=O)C1", "note": "(configuration not stated)", "Potency": "inactive"},
      {"smiles": "CC(=O)c1cccc(OCC(O)CN2CCN(S(=O)(=O)c3c(F)cccc3F)CC2)c1", "note": "(configuration not stated)", "Potency": "inconclusive: 20.6 µM [inhibitor, single point]"},
      {"smiles": "Cc1ccc(S(=O)(=O)N(C)CC(=O)Nc2nnc(CC(C)C)s2)cc1", "Potency": "inactive"},
      {"smiles": "O=C(Cn1c(=O)oc2ccccc21)NCC1COc2ccccc2O1", "note": "(configuration not stated)", "Potency": "inactive"},
      {"smiles": "COc1ccc(S(=O)(=O)NCc2ccccn2)cc1NC(=O)c1ccc(Cl)cc1", "Potency": "inconclusive: 29.1 µM [inhibitor, single point]"},
      {"smiles": "COc1ccc(N2CCN(C(=O)C3CCN(S(=O)(=O)c4cccs4)CC3)CC2)cc1", "Potency": "inactive"},
      {"smiles": "O=C1C(=O)N(CCCO)C(c2ccc(Br)cc2)/C1=C(\\O)c1ccc(Br)cc1", "note": "(configuration not stated)", "Potency": "inactive"},
      {"smiles": "COc1ccc(NC(=O)c2nc3ccccc3s2)cc1", "Potency": "inconclusive: 1.16 µM [activator, full curve]"},
      {"smiles": "CC(C)c1cc(NCC2CCCO2)n2c(nc3ccccc32)c1C#N", "note": "(configuration not stated)", "Potency": "active: 16.4 µM"},
      {"smiles": "O=C(Nc1cc2c(cc1[N+](=O)[O-])OCCO2)c1cccnc1", "Potency": "inconclusive: 20.6 µM [activator, partial curve]"},
      {"smiles": "Brc1ccc(-c2noc(CCc3ccccc3)n2)o1", "Potency": "inconclusive: 23.1 µM [activator, partial curve]"},
      {"smiles": "Cc1ccccc1OCc1nc2ccccc2c(=O)n1/N=C/c1ccco1", "Potency": "inconclusive: 29.1 µM [inhibitor, single point]"},
      {"smiles": "COc1ccc(C2c3ccsc3CCN2C(=O)C(C)(C)C)cc1", "note": "(configuration not stated)", "Potency": "inconclusive: 18.3 µM [inhibitor, partial curve]"},
      {"smiles": "CCN(CC)C(=O)n1c(Cc2ccccc2)nc2ccccc21", "Potency": "inactive"},
      {"smiles": "O=C1c2ccccc2C(=O)N1CCC#Cc1ccc2cc(C3(O)CCCCC3)oc(=O)c2c1", "Potency": "inconclusive: 6.51 µM [inhibitor, single point]"},
      {"smiles": "COC(=O)CCC(=O)OC1(C)C(=O)C=C2C=C3CCCN3C=C2C1=O", "note": "(configuration not stated)", "Potency": "inactive"},
      {"smiles": "COc1ccc(Nc2oc(-c3ccc(Cl)cc3)nc2C#N)cc1", "Potency": "inconclusive: 18.4 µM [activator, single point]"},
      {"smiles": "O=c1oc(-c2cccs2)nc2scc(-c3cccs3)c12", "Potency": "inconclusive: 13 µM [activator, partial curve]"},
      {"smiles": "O=C(NNS(=O)(=O)c1ccc(F)cc1F)c1csc(-c2cccnc2)n1", "Potency": "inactive"},
      {"smiles": "O=C(Nc1ccon1)c1cnc2sccn2c1=O", "Potency": "inconclusive: 20.6 µM [activator, single point]"},
      {"smiles": "CCC(=O)Nc1ccccc1C(=O)OCC(=O)c1ccccc1", "Potency": "inconclusive: 11.2 µM [activator, partial curve, poor fit]"},
      {"smiles": "O=C(COC(=O)c1cccc(Br)c1)Nc1cccc2c1C(=O)c1ccccc1C2=O", "Potency": "inconclusive: 4.11 µM [activator, full curve]"},
      {"smiles": "COc1ccc(C(=O)NC(=S)Nc2ccc(CN3CCCCC3)cc2)cc1Cl", "Potency": "inactive"},
      {"smiles": "CCOC(=O)c1c(NC(=O)Cc2cccs2)sc2c1CCCC2", "Potency": "inactive"},
      {"smiles": "Cc1ccc(NC(=O)CSc2nnc(Cc3csc(C)n3)o2)cc1", "Potency": "inconclusive: 15.8 µM [activator, single point]"},
      {"smiles": "Cc1cc(C)nc(N/N=C/c2cc(C)n(CC(F)(F)F)c2C)n1", "Potency": "inconclusive: 29.1 µM [inhibitor, single point]"},
      {"smiles": "S=C(NNc1cccc(Cl)c1)NC1CCCCC1", "Potency": "inconclusive: 18.3 µM [inhibitor, partial curve, poor fit]"}
    ]}
  ]
}
